From article PMC10104637, “Phosphorylation of USP29 by CDK1 Governs TWIST1 Stability and Oncogenic Functions” (Advanced Science, 2023)

The chains behind the UniProt entries cited, without tags or fusion partners.
UniProt Q15672: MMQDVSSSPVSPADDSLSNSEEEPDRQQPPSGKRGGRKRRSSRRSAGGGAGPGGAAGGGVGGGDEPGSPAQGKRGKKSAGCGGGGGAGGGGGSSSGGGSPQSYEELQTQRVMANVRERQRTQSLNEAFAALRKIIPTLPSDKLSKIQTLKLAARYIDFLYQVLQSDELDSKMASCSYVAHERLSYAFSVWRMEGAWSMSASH
UniProt Q9NVI1: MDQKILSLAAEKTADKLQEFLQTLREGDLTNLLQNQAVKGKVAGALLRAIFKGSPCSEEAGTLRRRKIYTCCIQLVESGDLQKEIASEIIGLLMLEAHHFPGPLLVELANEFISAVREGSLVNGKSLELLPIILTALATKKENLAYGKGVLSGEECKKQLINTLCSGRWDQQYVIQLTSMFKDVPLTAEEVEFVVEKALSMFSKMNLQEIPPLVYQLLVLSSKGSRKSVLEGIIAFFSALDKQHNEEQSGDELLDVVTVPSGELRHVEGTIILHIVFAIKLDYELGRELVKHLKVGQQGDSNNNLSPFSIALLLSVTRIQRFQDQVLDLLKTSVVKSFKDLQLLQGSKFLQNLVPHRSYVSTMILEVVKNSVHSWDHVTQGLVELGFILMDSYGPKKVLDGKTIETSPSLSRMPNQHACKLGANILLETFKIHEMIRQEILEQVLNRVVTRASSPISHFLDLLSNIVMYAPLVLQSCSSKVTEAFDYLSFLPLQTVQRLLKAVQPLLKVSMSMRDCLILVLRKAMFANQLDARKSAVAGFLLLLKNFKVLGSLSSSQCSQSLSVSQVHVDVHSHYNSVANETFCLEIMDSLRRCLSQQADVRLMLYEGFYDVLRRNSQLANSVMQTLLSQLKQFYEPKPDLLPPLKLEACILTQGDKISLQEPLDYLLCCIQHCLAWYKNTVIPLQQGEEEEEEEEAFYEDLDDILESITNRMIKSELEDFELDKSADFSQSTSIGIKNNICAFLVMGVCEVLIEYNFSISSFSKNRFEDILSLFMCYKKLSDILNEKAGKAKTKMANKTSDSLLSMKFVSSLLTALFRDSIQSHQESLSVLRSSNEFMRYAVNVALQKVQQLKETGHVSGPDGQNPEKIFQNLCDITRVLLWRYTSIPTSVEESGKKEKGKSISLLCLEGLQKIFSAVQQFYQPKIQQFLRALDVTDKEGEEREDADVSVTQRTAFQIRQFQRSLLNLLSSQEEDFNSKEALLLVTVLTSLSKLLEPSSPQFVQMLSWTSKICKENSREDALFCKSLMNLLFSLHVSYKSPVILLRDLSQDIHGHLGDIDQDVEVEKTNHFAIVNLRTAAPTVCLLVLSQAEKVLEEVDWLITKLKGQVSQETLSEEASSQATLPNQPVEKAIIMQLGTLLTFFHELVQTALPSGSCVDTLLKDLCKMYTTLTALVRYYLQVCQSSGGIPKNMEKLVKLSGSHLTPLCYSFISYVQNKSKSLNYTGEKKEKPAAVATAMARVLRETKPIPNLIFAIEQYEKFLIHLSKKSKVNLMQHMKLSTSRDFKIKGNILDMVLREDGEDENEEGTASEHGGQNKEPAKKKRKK

T1: Flag-USP29 (stably expressed in MDA-MB-231) (UniProt Q9HBJ7)
T1 sequence: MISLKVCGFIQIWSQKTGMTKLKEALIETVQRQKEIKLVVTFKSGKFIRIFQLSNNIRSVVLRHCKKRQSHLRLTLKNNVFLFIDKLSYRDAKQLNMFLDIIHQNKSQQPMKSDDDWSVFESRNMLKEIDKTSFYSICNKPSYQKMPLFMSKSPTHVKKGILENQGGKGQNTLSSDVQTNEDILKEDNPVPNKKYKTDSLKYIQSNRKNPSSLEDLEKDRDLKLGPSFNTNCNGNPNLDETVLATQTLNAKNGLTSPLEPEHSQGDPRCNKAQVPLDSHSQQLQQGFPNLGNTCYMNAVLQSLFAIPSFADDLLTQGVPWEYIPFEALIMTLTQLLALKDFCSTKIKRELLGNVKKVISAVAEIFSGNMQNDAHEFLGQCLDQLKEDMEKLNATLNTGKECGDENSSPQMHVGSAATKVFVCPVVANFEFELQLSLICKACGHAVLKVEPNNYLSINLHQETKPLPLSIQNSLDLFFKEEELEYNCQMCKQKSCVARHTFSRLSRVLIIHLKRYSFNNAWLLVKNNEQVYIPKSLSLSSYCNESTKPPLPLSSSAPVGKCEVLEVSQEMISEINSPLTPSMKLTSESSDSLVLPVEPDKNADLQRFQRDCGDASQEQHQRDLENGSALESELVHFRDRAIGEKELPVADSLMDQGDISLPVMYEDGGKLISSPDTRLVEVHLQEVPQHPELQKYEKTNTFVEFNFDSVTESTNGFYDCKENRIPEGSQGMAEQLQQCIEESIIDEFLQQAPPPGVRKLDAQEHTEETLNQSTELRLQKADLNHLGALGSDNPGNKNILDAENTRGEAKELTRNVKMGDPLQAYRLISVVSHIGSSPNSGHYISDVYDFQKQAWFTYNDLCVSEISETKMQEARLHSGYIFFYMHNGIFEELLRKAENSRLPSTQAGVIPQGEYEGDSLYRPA


Legend:
[1] = molecular target: T1, Flag-USP29 (stably expressed in MDA-MB-231); assay: affinity purification with mass spectrometry; tandem affinity purification of USP29 complexes from MDA-MB-231 cells stably expressing Flag-USP29
Flag-TWIST1 = Flag-TWIST1 (UniProt Q15672); assay: affinity purification with mass spectrometry; tandem affinity purification of TWIST1 complexes from MDA-MB-231 cells stably expressing Flag-TWIST1

| binding [1] | binding (Flag-TWIST1) | Molecule |
| --- | --- | --- |
| binds | – | FANCI (found with Flag-USP29 in MDA-MB-231) (from UniProt Q9NVI1 1-1328) |
| – | binds | USP29 (endogenous) (enzyme, UniProt Q9HBJ7 1-922) MISLKVCGFIQIWSQKTGMTKLKEALIETVQRQKEIKLVVTFKSGKFIRIFQLSNNIRSVVLRHCKKRQSHLRLTLKNNVFLFIDKLSYRDAKQLNMFLDIIHQNKSQQPMKSDDDWSVFESRNMLKEIDKTSFYSICNKPSYQKMPLFMSKSPTHVKKGILENQGGKGQNTLSSDVQTNEDILKEDNPVPNKKYKTDSLKYIQSNRKNPSSLEDLEKDRDLKLGPSFNTNCNGNPNLDETVLATQTLNAKNGLTSPLEPEHSQGDPRCNKAQVPLDSHSQQLQQGFPNLGNTCYMNAVLQSLFAIPSFADDLLTQGVPWEYIPFEALIMTLTQLLALKDFCSTKIKRELLGNVKKVISAVAEIFSGNMQNDAHEFLGQCLDQLKEDMEKLNATLNTGKECGDENSSPQMHVGSAATKVFVCPVVANFEFELQLSLICKACGHAVLKVEPNNYLSINLHQETKPLPLSIQNSLDLFFKEEELEYNCQMCKQKSCVARHTFSRLSRVLIIHLKRYSFNNAWLLVKNNEQVYIPKSLSLSSYCNESTKPPLPLSSSAPVGKCEVLEVSQEMISEINSPLTPSMKLTSESSDSLVLPVEPDKNADLQRFQRDCGDASQEQHQRDLENGSALESELVHFRDRAIGEKELPVADSLMDQGDISLPVMYEDGGKLISSPDTRLVEVHLQEVPQHPELQKYEKTNTFVEFNFDSVTESTNGFYDCKENRIPEGSQGMAEQLQQCIEESIIDEFLQQAPPPGVRKLDAQEHTEETLNQSTELRLQKADLNHLGALGSDNPGNKNILDAENTRGEAKELTRNVKMGDPLQAYRLISVVSHIGSSPNSGHYISDVYDFQKQAWFTYNDLCVSEISETKMQEARLHSGYIFFYMHNGIFEELLRKAENSRLPSTQAGVIPQGEYEGDSLYRPA |
| binds | – | MYBBP1A (found with Flag-USP29 in MDA-MB-231) (protein, UniProt Q9BQG0 1-1328) MESRDPAQPMSPGEATQSGARPADRYGLLKHSREFLDFFWDIAKPEQETRLAATEKLLEYLRGRPKGSEMKYALKRLITGLGVGRETARPCYSLALAQLLQSFEDLPLCSILQQIQEKYDLHQVKKAMLRPALFANLFGVLALFQSGRLVKDQEALMKSVKLLQALAQYQNHLQEQPRKALVDILSEVSKATLQEILPEVLKADLNIILSSPEQLELFLLAQQKVPSKLKKLVGSVNLFSDENVPRLVNVLKMAASSVKKDRKLPAIALDLLRLALKEDKFPRFWKEVVEQGLLKMQFWPASYLCFRLLGAALPLLTKEQLHLVMQGDVIRHYGEHVCTAKLPKQFKFAPEMDDYVGTFLEGCQDDPERQLAVLVAFSSVTNQGLPVTPTFWRVVRFLSPPALQGYVAWLRAMFLQPDLDSLVDFSTNNQKKAQDSSLHMPERAVFRLRKWIIFRLVSIVDSLHLEMEEALTEQVARFCLFHSFFVTKKPTSQIPETKHPFSFPLENQAREAVSSAFFSLLQTLSTQFKQAPGQTQGGQPWTYHLVQFADLLLNHSHNVTTVTPFTAQQRQAWDRMLQTLKELEAHSAEARAAAFQHLLLLVGIHLLKSPAESCDLLGDIQTCIRKSLGEKPRRSRTKTIDPQEPPWVEVLVEILLALLAQPSHLMRQVARSVFGHICSHLTPRALQLILDVLNPETSEDENDRVVVTDDSDERRLKGAEDKSEEGEDNRSSESEEESEGEESEEEERDGDVDQGFREQLMTVLQAGKALGGEDSENEEELGDEAMMALDQSLASLFAEQKLRIQARRDEKNKLQKEKALRRDFQIRVLDLVEVLVTKQPENALVLELLEPLLSIIRRSLRSSSSKQEQDLLHKTARIFTHHLCRARRYCHDLGERAGALHAQVERLVQQAGRQPDSPTALYHFNASLYLLRVLKGNTAEGCVHETQEKQKAGTDPSHMPTGPQAASCLDLNLVTRVYSTALSSFLTKRNSPLTVPMFLSLFSRHPVLCQSLLPILVQHITGPVRPRHQACLLLQKTLSMREVRSCFEDPEWKQLMGQVLAKVTENLRVLGEAQTKAQHQQALSSLELLNVLFRTCKHEKLTLDLTVLLGVLQGQQQSLQQGAHSTGSSRLHDLYWQAMKTLGVQRPKLEKKDAKEIPSATQSPISKKRKKKGFLPETKKRKKRKSEDGTPAEDGTPAATGGSQPPSMGRKKRNRTKAKVPAQANGTPTTKSPAPGAPTRSPSTPAKSPKLQKKNQKPSQVNGAPGSPTEPAGQKQHQKALPKKGVLGKSPLSALARKKARLSLVIRSPSLLQSGAKKKAQVRKAGKP |

Results are given in words; binding and its absence hold for the method and conditions named. In cells and extracts the contact can be indirect. These calls come from enrichment with a bait or labelling near it, and not all partners need be listed. For part of these data: Tags and fused reporters may be left off the sequences shown.
